We go through 40 molecules from the supplement of paper PMC8256030.

Several values for one entry are separate records, joined by “and”; a condition that tells them apart may be missing. Equal values may be shown once. The list shows a part of the results. This data set is noisy: repeats of one test often differ as much as different tests do.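 HEK293T cells were given each compound shortly before transfection with a reporter in which red mCherry is followed by the SARS-CoV-2 frameshift element and then GFP in the −1 frame, so GFP appears only after frameshifting.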

The first test deals with SARS-CoV-2 -1 PRF reporter mCherry-FSE-GFP(-1). In words: mCherry (red) intensity as percent of control; higher = higher upstream reporter expression. Particulars: 10 µM; 24 h; HEK293T.
On to `C=C[C@H]1CN2CC[C@H]1C[C@H]2[C@H](O)c1ccnc2ccc(OC)cc12` [Aflukin], for which the mCherry worked out at 128%.
On the same count and under the same terms, to `N[C@@H](CC(=O)N1CCn2c(nnc2C(F)(F)F)C1)Cc1cc(F)c(F)cc1F` belongs 86.8%.
As for `C[C@]12CC[C@H](O)CC1=CC[C@@H]1[C@@H]2CC[C@]2(C)C(=O)CC[C@@H]12` [prasterone], the mCherry is 85.7% and 94.4%.
Still for that read-out and setting: to `N=c1nc(N2CCCCC2)cc(N)n1O` [minoxidil] belongs 80.4% and 81.7%; to `N=C(N)c1ccc(CNC(=O)[C@@H]2CCN2C(=O)[C@H](NCC(=O)O)C2CCCCC2)cc1` [melagatran], 73.4%; to `CC(C)CCC(=O)CC1c2ccccc2C(=O)N1c1ccc2ccc(Cl)nc2n1` (stereo not given) [pagoclone], 92.8%.
Still for that read-out and setting: under `NC(=O)[C@H]1O[C@@H](O)[C@H](O)[C@@H](O)[C@@H]1O` [glucuronamide] stands 78.8%; under `CCCNC(=O)NS(=O)(=O)c1ccc(Cl)cc1` [chlorpropamide], 93.7%; under `O=C(O)C1CSC(C(=O)O)N1` (stereo not given) [tidiacic], 77.8%.
Still for that read-out and setting: to `CC1=C(/C=C/C(C)=C/C=C/C(C)=C/C(=O)O)C(C)(C)CCC1` [tretinoin] belongs 100% and 99.8%; to `CC(CCc1ccccc1)NCC(O)c1ccc(O)c(C(N)=O)c1` (stereo not given) [labetalol], 98.4%.
In turn, `COc1ccc(C2C(=O)c3ccccc3C2=O)cc1` [anisindione] registered a mCherry of 107%.
Still for that read-out and setting: under `COC(=O)Nc1nc2cc(C(=O)c3cccs3)ccc2[nH]1` [nocodazole] stands 26.4%; under `CC(=O)[C@@]1(O)CC[C@H]2[C@@H]3CCC4=CC(=O)C=C[C@]4(C)[C@H]3[C@@H](O)C[C@@]21C` [deprodone], 81.2%.
The same measure, in the same setting: to `O=c1nc2cccccc-2n1Cc1ccccc1` [benhepazone] belongs 98.7%.
Molecule `CCc1cccc(CC)c1NC(=O)CN(CC(=O)O)CC(=O)O` [etifenin] came in with a mCherry of 94.8%.
As to `CCCCCCOC(=O)NC(=N)c1ccc(NCc2nc3cc(C(=O)N(CCC(=O)OCC)c4ccccn4)ccc3n2C)cc1` [Dabigatran etexilate], the mCherry stood at 52.2%.
Same read-out and setting: to `CC(C)(C)NC(=O)[C@@H]1CN(Cc2cccnc2)CCN1C[C@@H](O)C[C@@H](Cc1ccccc1)C(=O)N[C@H]1c2ccccc2C[C@H]1O` [indinavir] belongs 97.5%; to `NC[C@H](O)c1ccc(O)c(O)c1`, 74.7%.
`Cc1cc(C#N)cc(C)c1Oc1nc(Nc2ccc(C#N)cc2)nc(N)c1Br` [etravirine] came in with a mCherry of 26.5%.
Still for that read-out and setting: under `N#Cc1ccc2[nH]cc(CCCCN3CCN(c4ccc5oc(C(N)=O)cc5c4)CC3)c2c1` stands 84.8%.
On to `Cn1cnc([N+](=O)[O-])c1Sc1ncnc2[nH]cnc12` [azathioprine], for which the mCherry amounted to 72.1%.
Still for that read-out and setting: to `Clc1ccc(C(Cn2ccnc2)OCc2c(Cl)cccc2Cl)c(Cl)c1` (stereo not given) [isoconazole] belongs 85.4%.
The same measure, in the same setting: under `O=C(O)c1ccc(-n2nc(-c3ccccc3O)nc2-c2ccccc2O)cc1` [Exjade] stands 102%.
On to `CCN(CC)CCOC(=O)C1(C2CCCCC2)CCCCC1` [dicycloverine], for which the mCherry turned out to be 106%.
The same measure, in the same setting: under `C#C[C@]1(O)CC[C@H]2[C@@H]3CCC4=CCCC[C@@H]4[C@H]3CC[C@@]21C` [lynestrenol] stands 73.5%.
In turn, `O=C(O)C1CCSCN1` (stereo not given) [omonasteine] registered a mCherry of 103%.
Still for that read-out and setting: to `COc1ccc(CC2c3cc(OC)c(OC)cc3CC[N+]2(C)CCC(=O)OCCCCCOC(=O)CC[N+]2(C)CCc3cc(OC)c(OC)cc3C2Cc2ccc(OC)c(OC)c2)cc1OC` (stereo not given) [atracurium besilate] belongs 76.6% and 92.8%.
On the same count and under the same terms, to `CCOc1ccc(/C=C2\NCCc3cc(OCC)c(OCC)cc32)cc1OCC` [Drotin] belongs 85.8%; to `O=C1NCC2(CCN(CCc3ccccc3)CC2)O1`, 86.7%.
On the same count and under the same terms, to `CN1CCc2cccc3c2[C@H]1Cc1ccc(O)c(O)c1-3` belongs 123%.
In turn, `CN(C)CC[C@@H](c1ccc(Cl)cc1)c1ccccn1` [dexchlorpheniramine] returned a mCherry of 82%.
Same read-out and setting: under `CSCCC(N)C(=O)O` (stereo not given) stands 147%; under `CC(C)NCC(O)COc1ccccc1C1CC1` (stereo not given) [procinolol], 63.7%.
Same read-out and setting: under `COCCCOc1cc(C[C@@H](C[C@H](N)[C@@H](O)C[C@H](C(=O)NCC(C)(C)C(N)=O)C(C)C)C(C)C)ccc1OC` [aliskiren] stands 80.7%; under `NCCNC(=O)c1ccc(Cl)cn1` [lazabemide], 89.8%; under `CC(=O)Oc1cc(C(C)C)c(OCCN(C)C)cc1C` [moxisylyte], 97.5%.
On the same count and under the same terms, to `COc1ccc2cccc(CCNC(C)=O)c2c1` [agomelatine] belongs 91.2%; to `O=C(c1cc(O)c(O)c(O)c1)c1ccc(O)c(O)c1O` [exifone], 86.9%.
Molecule `C/C=C(/C(=C/C)c1ccc(O)cc1)c1ccc(O)cc1` [dienestrol] yielded a mCherry of 113%.

For the next test the test system is unchanged. In words: percent effect, decrease of GFP/mCherry ratio (-1 PRF reporter) relative to controls; higher = stronger frameshift inhibition. Particulars: 10 µM; 24 h; HEK293T.
With `C=C[C@H]1CN2CC[C@H]1C[C@H]2[C@H](O)c1ccnc2ccc(OC)cc12` [Aflukin], the percent effect was 4.34%.
`N[C@@H](CC(=O)N1CCn2c(nnc2C(F)(F)F)C1)Cc1cc(F)c(F)cc1F`: the percent effect is -3.68%.
Consider `C[C@]12CC[C@H](O)CC1=CC[C@@H]1[C@@H]2CC[C@]2(C)C(=O)CC[C@@H]12` [prasterone], for which the percent effect was -0.558% and -6.02%.
The same measure, in the same setting: to `N=c1nc(N2CCCCC2)cc(N)n1O` [minoxidil] belongs -4.72% and 2.8%; to `N=C(N)c1ccc(CNC(=O)[C@@H]2CCN2C(=O)[C@H](NCC(=O)O)C2CCCCC2)cc1` [melagatran], 4.53%.
For the molecule `CC(C)CCC(=O)CC1c2ccccc2C(=O)N1c1ccc2ccc(Cl)nc2n1` (stereo not given) [pagoclone], the percent effect was found to be 1.22%.
On the same count and under the same terms, to `NC(=O)[C@H]1O[C@@H](O)[C@H](O)[C@@H](O)[C@@H]1O` [glucuronamide] belongs -6.02%.
For `CCCNC(=O)NS(=O)(=O)c1ccc(Cl)cc1` [chlorpropamide], the percent effect was found to be 2.22%.
On the same count and under the same terms, to `O=C(O)C1CSC(C(=O)O)N1` (stereo not given) [tidiacic] belongs -10.4%.
Same read-out and setting: to `CC1=C(/C=C/C(C)=C/C=C/C(C)=C/C(=O)O)C(C)(C)CCC1` [tretinoin] belongs -3.3% and -1.45%.
The same measure, in the same setting: under `CC(CCc1ccccc1)NCC(O)c1ccc(O)c(C(N)=O)c1` (stereo not given) [labetalol] stands 1.3%.
Turning to `COc1ccc(C2C(=O)c3ccccc3C2=O)cc1` [anisindione], the percent effect is -13.5%.
On the same count and under the same terms, under `COC(=O)Nc1nc2cc(C(=O)c3cccs3)ccc2[nH]1` [nocodazole] stands -12.5%; under `CC(=O)[C@@]1(O)CC[C@H]2[C@@H]3CCC4=CC(=O)C=C[C@]4(C)[C@H]3[C@@H](O)C[C@@]21C` [deprodone], -0.703%; under `O=c1nc2cccccc-2n1Cc1ccccc1` [benhepazone], -2.39%.
Consider `CCc1cccc(CC)c1NC(=O)CN(CC(=O)O)CC(=O)O` [etifenin], for which the percent effect worked out at 2.46%.
The same measure, in the same setting: to `CCCCCCOC(=O)NC(=N)c1ccc(NCc2nc3cc(C(=O)N(CCC(=O)OCC)c4ccccn4)ccc3n2C)cc1` [Dabigatran etexilate] belongs -5.83%.
On the same count and under the same terms, under `CC(C)(C)NC(=O)[C@@H]1CN(Cc2cccnc2)CCN1C[C@@H](O)C[C@@H](Cc1ccccc1)C(=O)N[C@H]1c2ccccc2C[C@H]1O` [indinavir] stands -2.56%.
On the same count and under the same terms, under `NC[C@H](O)c1ccc(O)c(O)c1` stands -2.6%; under `Cc1cc(C#N)cc(C)c1Oc1nc(Nc2ccc(C#N)cc2)nc(N)c1Br` [etravirine], -13.1%; under `N#Cc1ccc2[nH]cc(CCCCN3CCN(c4ccc5oc(C(N)=O)cc5c4)CC3)c2c1`, -1.18%.
Turning to `Cn1cnc([N+](=O)[O-])c1Sc1ncnc2[nH]cnc12` [azathioprine], the percent effect is -9.82%.
Regarding `Clc1ccc(C(Cn2ccnc2)OCc2c(Cl)cccc2Cl)c(Cl)c1` (stereo not given) [isoconazole], the percent effect is 0.0406%.
Consider `O=C(O)c1ccc(-n2nc(-c3ccccc3O)nc2-c2ccccc2O)cc1` [Exjade], for which the percent effect was -2.23%.
Still for that read-out and setting: to `CCN(CC)CCOC(=O)C1(C2CCCCC2)CCCCC1` [dicycloverine] belongs -9.93%.
As to `C#C[C@]1(O)CC[C@H]2[C@@H]3CCC4=CCCC[C@@H]4[C@H]3CC[C@@]21C` [lynestrenol], the percent effect was -3.33%.
On the same count and under the same terms, under `O=C(O)C1CCSCN1` (stereo not given) [omonasteine] stands -0.417%.
Still for that read-out and setting: under `COc1ccc(CC2c3cc(OC)c(OC)cc3CC[N+]2(C)CCC(=O)OCCCCCOC(=O)CC[N+]2(C)CCc3cc(OC)c(OC)cc3C2Cc2ccc(OC)c(OC)c2)cc1OC` (stereo not given) [atracurium besilate] stands -5.05% and -8.81%.
The same measure, in the same setting: to `CCOc1ccc(/C=C2\NCCc3cc(OCC)c(OCC)cc32)cc1OCC` [Drotin] belongs -11.4%.
Regarding `O=C1NCC2(CCN(CCc3ccccc3)CC2)O1`, the percent effect was -1.86%.
The same measure, in the same setting: to `CN1CCc2cccc3c2[C@H]1Cc1ccc(O)c(O)c1-3` belongs 0.121%.
The same measure, in the same setting: under `CN(C)CC[C@@H](c1ccc(Cl)cc1)c1ccccn1` [dexchlorpheniramine] stands -9.81%.
Same read-out and setting: to `CSCCC(N)C(=O)O` (stereo not given) belongs 0.804%.
Consider `CC(C)NCC(O)COc1ccccc1C1CC1` (stereo not given) [procinolol], for which the percent effect was -2.13%.
For `COCCCOc1cc(C[C@@H](C[C@H](N)[C@@H](O)C[C@H](C(=O)NCC(C)(C)C(N)=O)C(C)C)C(C)C)ccc1OC` [aliskiren], the percent effect is -4.42%.
Regarding `NCCNC(=O)c1ccc(Cl)cn1` [lazabemide], the percent effect is -10.5%.
On the same count and under the same terms, to `CC(=O)Oc1cc(C(C)C)c(OCCN(C)C)cc1C` [moxisylyte] belongs 0.0548%.
As for `COc1ccc2cccc(CCNC(C)=O)c2c1` [agomelatine], the percent effect is -1.29%.
Same read-out and setting: to `O=C(c1cc(O)c(O)c(O)c1)c1ccc(O)c(O)c1O` [exifone] belongs -28.5%.
On the same count and under the same terms, to `C/C=C(/C(=C/C)c1ccc(O)cc1)c1ccc(O)cc1` [dienestrol] belongs -7.83%.
